# The supplement of paper PMC3334620
# Whole data set: some 33,000 sequences, median “E-score (-0.5 to 0.5)” near -0.015, cut for the highest 2% near 0.3. The list shows a part of the results.
# Molecular target: T1, Abf1 (UniProt P14164)
# T1 sequence: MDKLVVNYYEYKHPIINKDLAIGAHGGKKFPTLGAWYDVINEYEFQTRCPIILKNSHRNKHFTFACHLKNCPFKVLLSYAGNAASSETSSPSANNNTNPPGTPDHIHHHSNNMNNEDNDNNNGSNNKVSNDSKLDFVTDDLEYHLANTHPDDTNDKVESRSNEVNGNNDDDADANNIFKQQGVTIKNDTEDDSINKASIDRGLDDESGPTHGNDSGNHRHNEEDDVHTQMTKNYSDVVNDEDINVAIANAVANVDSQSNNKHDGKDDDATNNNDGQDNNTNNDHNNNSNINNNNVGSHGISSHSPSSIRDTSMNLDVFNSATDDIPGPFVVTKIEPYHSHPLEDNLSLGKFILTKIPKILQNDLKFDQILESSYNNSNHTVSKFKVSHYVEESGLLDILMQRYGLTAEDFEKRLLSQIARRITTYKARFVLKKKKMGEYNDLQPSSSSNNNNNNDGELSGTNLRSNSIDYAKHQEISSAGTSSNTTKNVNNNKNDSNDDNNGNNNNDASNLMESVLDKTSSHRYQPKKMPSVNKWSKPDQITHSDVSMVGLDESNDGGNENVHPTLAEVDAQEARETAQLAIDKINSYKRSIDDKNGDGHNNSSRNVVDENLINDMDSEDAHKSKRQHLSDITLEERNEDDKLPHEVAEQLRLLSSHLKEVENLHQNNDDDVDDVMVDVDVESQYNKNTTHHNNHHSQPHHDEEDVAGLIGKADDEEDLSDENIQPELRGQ
# Assay: PBM E-score (8-mer binding enrichment) (E-score (-0.5 to 0.5)); higher = stronger / more preferred TF binding
# Conditions: protein concentration: 200 nM; construct: GST-full length
# Summary of the method: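 Detection of bound protein used fluorescent anti-GST, with scans normalised by masliner. The proteins were GST-tagged yeast transcription factors applied at about 100-200 nM to universal all-10-mer Agilent arrays made double-stranded by primer extension. Each ungapped eight-base word, pooled with its reverse complement, was scored with an E-score from the Universal PBM Analysis Suite.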
row,Sequence,PBM E-score
1,CGTTGTCA,0.273
2,CTCCCGGC,-0.0528
3,ATACTTCC,0.0781
4,CAACTGTC,0.00892
5,CCGAGGCC,-0.17
6,GTCGATGA,0.0873
7,GCGAGGTA,0.0313
8,CGATCTGC,-0.042
9,GAATACTC,-0.0282
10,ATACGAGA,0.105
11,ACGTGGGG,0.0297
12,GACTGGGC,-0.208
13,CTCTGCTC,-0.244
14,AGCTTAAT,-0.064
15,CGTTGAAG,-0.00638
16,ACAGGGGA,-0.209
17,AGTCAGCA,0.123
18,CCTTGTCC,-0.121
19,TACGTGGA,0.0655
20,ATACTTGC,0.023
21,GCGAGTAC,-0.0176
22,CCTCTAGA,0.0683
23,ACAAACCA,-0.156
24,AACGCGCA,0.0126
25,ACTGCTGA,-0.131

row,Sequence,PBM E-score
1,AAATGAAG,-0.0486
2,CTGAGTAA,-0.214
3,ATAATAAC,0.159
4,ACTCCACG,-0.0354
5,CTAAGCCA,-0.0473
6,AGAATAAG,0.0705
7,GCCATCTA,-0.139
8,CCTGTAGA,-0.139
9,AGATCAAA,0.0132
10,ATACCCTG,-0.0709
11,GGGCCGCA,-0.301
12,CCGTTAAC,-0.0354
13,AAAAAATT,0.116
14,AGTCCCAG,-0.199
15,ACGAGTAT,0.0202
16,ACCAAGCT,-0.00876
17,GGCAATCA,0.013
18,CATGTTGG,-0.183
19,CACCAGGG,-0.25
20,CTCCTTGA,-0.17
21,AGTTGGAC,-0.0524
22,CCTATGGA,-0.177
23,ACGCGTGG,0.0243
24,CCAGACGC,-0.137
25,CAACTAAC,0.134

# Some values from the results shown.
# Value for CCGTTAAC under PBM E-score: -0.0354
# Value for CCTGTAGA under PBM E-score: -0.139
# Value for AGTCCCAG under PBM E-score: -0.199

# Next part.

row,Sequence,PBM E-score
1,AAACGGAA,0.197
2,GCGGAGGA,-0.227
3,CCTGGTGC,-0.106
4,GGCATTTA,-0.144
5,CCAGATAA,0.00802
6,TGCCCAAA,0.0119
7,AACCTAAC,-0.00756
8,AAGGTGGG,-0.195
9,ATAGCGCC,0.0557
10,CAAGCAGA,-0.0483
11,CAACCGGC,0.0444
12,ATTAGCTA,0.142
13,ATTCGCCC,-0.13
14,ACCCTGCG,-0.0365
15,AAGTGCCT,-0.162
16,ATGAGCTG,-0.0505
17,AGCACTAC,-0.0483
18,ATGTGTAC,-0.111
19,CAAAACCG,0.0657
20,GATCGAGA,-0.0495
21,CGACACAC,0.237
22,AAGCGAGG,-0.0709
23,ATGCAGCC,0.0304
24,AGACAGAG,-0.166
25,CGGAATGA,0.0306

row,Sequence,PBM E-score
1,ATTGCGCA,-0.109
2,ATTGGTTC,0.09
3,ATACGGTC,0.26
4,CGAAGCTC,-0.00032
5,TACCACGA,0.216
6,GGACTCGA,-0.291
7,ATTCTGTG,0.00625
8,GCCATTCC,-0.161
9,ACACCACC,-0.17
10,GGCTTCTA,-0.0456
11,GAATGCTA,0.119
12,CCTTCATC,-0.0644
13,GGTATAAA,-0.0171
14,TAACATAA,0.134
15,GACCGCTA,-0.0269
16,CAGTCTAC,-0.114
17,ACTACTTC,0.0426
18,CGGCAACC,0.0833
19,AGGGAAAT,-0.0476
20,AGGCGCAG,-0.235
21,TGCTCTAA,0.0391
22,CGCTATGC,-0.0113
23,GATATATA,0.289
24,AGAAGGAG,-0.354
25,ATGGCCGG,-0.258

row,Sequence,PBM E-score
1,CCCGCTCA,-0.161
2,AACGCCAA,-3e-05
3,GAGTGATA,0.424
4,CAATTGGG,-0.135
5,AGCAATCG,0.0931
6,GACTGGCA,-0.194
7,AGAACCAA,-0.102
8,ACCCAATC,0.032
9,CTGGGCGC,-0.098
10,AGGATTGA,-0.0149
11,CTAACCGA,-0.151
12,CTCTCTGA,-0.149
13,CATTGTTA,0.147
14,ATCTTGTC,0.141
15,CGCATGGA,-0.029
16,CATTATGG,-0.0428
17,CCTTCGCG,-0.116
18,GGAACCCA,-0.0699
19,CATTCCAG,-0.0808
20,ATGTGGCC,0.0364
21,AGTGTGGC,0.0153
22,ATGCTCGA,0.0106
23,ATGATAAT,0.377
24,CCGTCCCA,0.198
25,CACAAGTC,-0.1

row,Sequence,PBM E-score
1,GGCCTGGA,-0.208
2,ACCGGTAG,-0.138
3,AAACATGA,0.168
4,TCTCTTAA,0.124
5,CTTCGCAA,0.028
6,GGGCCATA,-0.105
7,TATAGCGA,-0.0367
8,ACGGATAC,0.189
9,CTTTGACA,-0.103
10,CACCAGCC,-0.128
11,AGTGTCCC,-0.0369
12,GCTCATAA,-0.0889
13,ATCAGGTC,-0.00063
14,AATAATCG,0.0481
15,AAAGTGGC,-0.118
16,GATGGGTA,0.0596
17,AGTTATAG,0.01
18,CCCAGGCC,-0.216
19,AGCTCGAC,-0.143
20,ATTACCTA,0.11
21,CGGTTGTC,0.0712
22,GCGACTAA,0.0452
23,ATATCTAC,0.172
24,GCCTGTAA,-0.214
25,ATCTTCCA,0.105

row,Sequence,PBM E-score
1,CTTGGCCA,-0.117
2,CGGGTAGC,-0.0716
3,ATATAGCC,0.0391
4,ACGTTTGA,0.174
5,CTTGGCAC,-0.0709
6,GCCAGAAC,-0.0265
7,CGTTGACA,0.245
8,GAAAGAAC,-0.0226
9,ACGGGGAC,-0.058
10,AGCTTTAC,-0.206
11,AGGAAGAA,-0.209
12,ACCGCGGA,-0.0979
13,AGATAACC,0.0382
14,ACTACCAA,-0.0137
15,AGTGAGAG,-0.0892
16,CAGAGACG,0.112
17,GCCCAGCA,-0.191
18,ATCAGATA,0.181
19,CGGATAGA,0.147
20,GTGGTGGA,-0.129
21,CCCACAGA,-0.123
22,ATCTTAGG,-0.179
